This assay addresses spinophilin (mouse (endogenous in C57Bl/6 brain)) (UniProt Q6R891). As to the kind of experiment: affinity purification with mass spectrometry; spinophilin immunoprecipitated (goat antibody) from extrasynaptic (S2) and synaptic (S3) fractions of intact and 6-OHDA-lesioned mouse striatum; SDS-PAGE, gel regions digested with trypsin, Orbitrap Velos; spectral counts and XIC areas.

Sequences of proteins named here, by UniProt entry; tags and fusion partners are left off.
UniProt Q6R891: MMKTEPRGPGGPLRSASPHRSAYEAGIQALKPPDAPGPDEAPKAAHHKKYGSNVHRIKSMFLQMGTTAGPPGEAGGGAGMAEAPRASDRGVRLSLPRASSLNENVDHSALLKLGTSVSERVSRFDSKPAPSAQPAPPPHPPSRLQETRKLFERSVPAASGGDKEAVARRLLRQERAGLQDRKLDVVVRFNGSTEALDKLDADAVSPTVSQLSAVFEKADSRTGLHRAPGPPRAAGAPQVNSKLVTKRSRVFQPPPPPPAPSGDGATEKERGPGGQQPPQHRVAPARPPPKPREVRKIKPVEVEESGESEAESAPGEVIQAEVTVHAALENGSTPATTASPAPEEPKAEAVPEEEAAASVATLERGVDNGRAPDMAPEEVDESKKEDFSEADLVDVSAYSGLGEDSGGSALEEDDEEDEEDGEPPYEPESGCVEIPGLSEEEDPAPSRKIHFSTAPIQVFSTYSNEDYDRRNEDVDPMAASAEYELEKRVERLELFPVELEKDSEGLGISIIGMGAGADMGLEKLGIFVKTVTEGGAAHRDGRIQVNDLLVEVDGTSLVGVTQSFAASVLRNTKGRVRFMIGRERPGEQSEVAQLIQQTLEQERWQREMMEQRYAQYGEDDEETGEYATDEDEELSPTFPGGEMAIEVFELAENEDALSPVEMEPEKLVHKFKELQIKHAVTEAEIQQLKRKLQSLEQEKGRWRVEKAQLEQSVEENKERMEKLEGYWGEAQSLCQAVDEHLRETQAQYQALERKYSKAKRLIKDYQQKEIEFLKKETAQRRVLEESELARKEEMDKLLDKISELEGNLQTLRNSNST

Results are given in words; binding and its absence hold for the method and conditions named. Binding seen in cells or lysates may run through a third protein. Here binding means that the protein was enriched with, or labelled near, the bait; the list need not be complete.

B1: SAPAP3 (protein, UniProt Q6PFD5 1-977)
chain: MRGYHGDRGSHPRPARFADQQHMDVGPAARAPYLLGSREAFSTEPRFCAPRAGLGHLSPEGPLSLSEGPSSVGPEGGPGGVGAGGGSSTFPRMYPGQGPFDTCEDCVGHPQGKGATRLPPTLLDQFEKQLPVQQDGFHTLPYQRGPAGPGPGPGSGAAPEARSESPSRIRHLVHSVQKLFAKSHSLEAPGKRDYNGPKADGRGSSGGDSYSGPGSGGTPTSHHHHHHHHHHHHQSRHGKRSKSKDRKGDGRHQTKATGWWSSDDNLDSDSGFLGGRPPGEPGGPFCLDAPDGSYRDLSFKGRSGGSEGRCLACTGMSMSLDGQSVKRSAWHTMMVSQGRDGYPGAGPGKGLLGPETKAKARTYHYLQVPQDDWGGYPTGGKDGEIPCRRMRSGSYIKAMGDEESGDSDGSPKTSPKALARRFASRRSSSVDTARINCCVPPRIHPRSSIPGYSRSLTTGQLSEEFNQQLEAVCGSVFGELESQAVDALDLPGCFRMRSHSYLRAIQAGCSQDDDCLPLLAAPASVSGRPGSSFNFRKAPPPIPPGSQAPPRISITAQSSTDSAHESFTAAEGPARRCSSADGLDGPTMGARTLELAPVPPRASPKPPTLIIKTIPGREELRSLARQRKWRPSIGVQVETISDSDTENRSRREFHSIGVQVEEDKRRARFKRSNSVTAGVQADLELEGLAGLATVATEDKALQFGRSFQRHASEPQPGPRAPTYSVFRTVHTQGQWAYREGYPLPYEPPATDGSPGPTPVPAPGPGSGRRDSWMERGSRSLPDSGRTSPCPRDGEWFIKMLRAEVEKLEHWCQQMEREAEDYELPEEILEKIRSAVGSTQLLLSQKVQQFFRLCQQSLDPTAFPVPTFQDLAGFWDLLQLSIEDVTLKFLELQQLKANSWKLLEPKEEKKVPPPIPKKPSRGRGVPVKERSLDSVDRQRQEARKRLLAAKRAASFRHSSATESADSIEIYIPEAQTRL
In the case of B1, the binding result is reported as “binds”.

These data come from paper PMC5467389.
